The values that follow come from patent publication US6399747.

No constants are given. Whether binding was seen depends on the method and setting. In cells and extracts the contact can be indirect. Some binding calls cover weakened binding; strength is not graded here.

This test has as its target T1, endogenous Shc of murine cells (NIH 3T3 lysate, primary T cells) (mouse) (UniProt P98083).
T1 sequence (looked up): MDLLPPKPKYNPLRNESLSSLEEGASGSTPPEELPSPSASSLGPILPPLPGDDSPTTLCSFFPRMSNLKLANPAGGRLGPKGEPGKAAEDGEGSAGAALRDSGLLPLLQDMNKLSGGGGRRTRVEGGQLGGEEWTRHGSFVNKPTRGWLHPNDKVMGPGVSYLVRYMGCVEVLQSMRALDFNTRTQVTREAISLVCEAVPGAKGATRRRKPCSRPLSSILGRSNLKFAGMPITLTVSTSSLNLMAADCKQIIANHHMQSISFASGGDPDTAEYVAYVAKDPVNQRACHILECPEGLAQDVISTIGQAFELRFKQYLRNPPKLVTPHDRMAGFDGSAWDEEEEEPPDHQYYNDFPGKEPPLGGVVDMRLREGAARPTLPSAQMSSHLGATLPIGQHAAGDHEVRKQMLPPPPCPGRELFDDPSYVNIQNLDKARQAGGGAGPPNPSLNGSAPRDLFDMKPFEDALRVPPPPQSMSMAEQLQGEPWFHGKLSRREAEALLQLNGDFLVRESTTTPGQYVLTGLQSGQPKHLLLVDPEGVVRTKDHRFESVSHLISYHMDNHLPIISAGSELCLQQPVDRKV
Description: co-immunoprecipitation from anti-CD3 activated primary mouse T cells, and from CTLA4 deficient T cells.

B1: endogenous mPAL from murine cells (P19 cells, primary T cells) (protein)
chain: MADDLRAGGVLEPIAMVPPRPDLAAEKEPASWKEGLFLDADPCSDQGYHANPGATVKTLIPEGKTPFPRIIQTNELLFYERFRAYQDYILADCKASEVKEFTVSFLEKVLEPSGWWAVWHTNVFEVLVEVTNVDFPSLKAVVRLAEPCIYESKLSTFTLANVKELLDLKEFHLPLQELWVVSDDSHEFHQMALAIEHVRFFYKHIWRSWDEEEEDEYDYFVRCVEPRLRLYYDILEDRVPSGLIVDYHNLLSQCEESYRKFLNLRSSLSNCNSDSEQENISMVEGLNLYSEIEQLKQKLKLIENPLLRYVFGYQKNSNIQGKGTRQNGQKVIHVVSSTMKTGLLRSLFKDRFCEESCKEETEIKFHSDLLSGINACYDGDTVIICPGHYVVHGTCSIADSIELEGYGLPDDIVIEKRGKGDTFVDCTGMDVKISGIKFIQHDSVEGILIIHHGKTTLENCVLQCETTGVTVRTSAELFMKNSDVYGAKGAGIEIYPGSKCTLTDNGIHHCKEGILIKDFLDEHYDIPKISMINNVIHNNEGYGVVLVKPTIFCDLQENTQDEINDNMVQKNKEADVTEGLDLEEMLQCVASKMEPYATADFNEQAKGNCEIINELLAISMQKGRMKKRLSELGITQADDNIMSQEMFIEIMGNQFKWNGKGSFGTFLY
For the molecule B1, the binding entry is “binds”.
